In the supplement of paper PMC11006884:
The list shows a part of the results, in another mix than the full data.

Sequences of proteins named here, by UniProt entry; tags and fusion partners are left off. A change or cut given only in a name is not applied to a line headed by its entry.
UniProt Q9Y3F4: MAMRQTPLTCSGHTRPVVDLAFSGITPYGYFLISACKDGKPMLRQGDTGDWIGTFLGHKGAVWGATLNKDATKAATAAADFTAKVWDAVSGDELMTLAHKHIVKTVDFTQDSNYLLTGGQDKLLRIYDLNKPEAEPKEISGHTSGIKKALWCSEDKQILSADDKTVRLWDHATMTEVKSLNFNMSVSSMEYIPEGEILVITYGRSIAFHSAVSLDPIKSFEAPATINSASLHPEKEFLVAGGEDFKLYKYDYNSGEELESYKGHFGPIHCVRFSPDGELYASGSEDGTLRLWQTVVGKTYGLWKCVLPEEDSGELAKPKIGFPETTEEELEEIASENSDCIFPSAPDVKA
UniProt Q9ULW0, whole entry, looked up: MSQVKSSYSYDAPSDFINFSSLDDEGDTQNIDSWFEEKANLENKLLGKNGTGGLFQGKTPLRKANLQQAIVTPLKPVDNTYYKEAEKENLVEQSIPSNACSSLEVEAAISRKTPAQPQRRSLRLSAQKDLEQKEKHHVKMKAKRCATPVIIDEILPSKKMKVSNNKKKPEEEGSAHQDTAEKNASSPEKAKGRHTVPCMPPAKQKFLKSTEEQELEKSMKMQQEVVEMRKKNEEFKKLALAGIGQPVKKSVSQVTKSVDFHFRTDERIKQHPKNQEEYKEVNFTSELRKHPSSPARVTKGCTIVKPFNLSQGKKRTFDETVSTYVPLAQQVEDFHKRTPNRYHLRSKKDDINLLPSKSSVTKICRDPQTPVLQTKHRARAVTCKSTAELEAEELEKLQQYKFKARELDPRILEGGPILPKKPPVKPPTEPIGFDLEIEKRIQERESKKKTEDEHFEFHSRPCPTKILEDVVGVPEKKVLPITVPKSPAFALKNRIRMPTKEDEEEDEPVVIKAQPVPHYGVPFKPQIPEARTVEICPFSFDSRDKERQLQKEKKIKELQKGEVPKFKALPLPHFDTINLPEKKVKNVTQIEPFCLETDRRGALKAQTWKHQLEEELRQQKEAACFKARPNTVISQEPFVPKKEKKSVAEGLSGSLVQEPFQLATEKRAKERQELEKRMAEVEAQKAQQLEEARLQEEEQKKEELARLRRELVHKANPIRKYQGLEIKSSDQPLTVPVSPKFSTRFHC
UniProt Q9ULX6: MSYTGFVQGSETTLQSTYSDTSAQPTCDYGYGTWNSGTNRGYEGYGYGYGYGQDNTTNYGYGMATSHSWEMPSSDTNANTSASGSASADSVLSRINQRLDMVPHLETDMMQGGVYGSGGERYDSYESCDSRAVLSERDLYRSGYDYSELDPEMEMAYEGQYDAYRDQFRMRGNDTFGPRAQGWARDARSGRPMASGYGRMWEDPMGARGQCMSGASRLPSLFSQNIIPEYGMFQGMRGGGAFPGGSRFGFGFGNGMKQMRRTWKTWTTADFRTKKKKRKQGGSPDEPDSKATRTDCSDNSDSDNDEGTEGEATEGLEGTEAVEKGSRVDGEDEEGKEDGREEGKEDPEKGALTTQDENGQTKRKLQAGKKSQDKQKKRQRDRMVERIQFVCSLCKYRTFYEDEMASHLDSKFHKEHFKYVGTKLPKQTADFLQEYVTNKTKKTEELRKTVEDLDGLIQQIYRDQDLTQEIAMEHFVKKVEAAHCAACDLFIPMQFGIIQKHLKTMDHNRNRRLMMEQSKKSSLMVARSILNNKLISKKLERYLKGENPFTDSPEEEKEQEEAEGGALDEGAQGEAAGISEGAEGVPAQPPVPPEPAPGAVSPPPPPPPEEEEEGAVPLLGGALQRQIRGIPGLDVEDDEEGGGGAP
UniProt Q9UKF6: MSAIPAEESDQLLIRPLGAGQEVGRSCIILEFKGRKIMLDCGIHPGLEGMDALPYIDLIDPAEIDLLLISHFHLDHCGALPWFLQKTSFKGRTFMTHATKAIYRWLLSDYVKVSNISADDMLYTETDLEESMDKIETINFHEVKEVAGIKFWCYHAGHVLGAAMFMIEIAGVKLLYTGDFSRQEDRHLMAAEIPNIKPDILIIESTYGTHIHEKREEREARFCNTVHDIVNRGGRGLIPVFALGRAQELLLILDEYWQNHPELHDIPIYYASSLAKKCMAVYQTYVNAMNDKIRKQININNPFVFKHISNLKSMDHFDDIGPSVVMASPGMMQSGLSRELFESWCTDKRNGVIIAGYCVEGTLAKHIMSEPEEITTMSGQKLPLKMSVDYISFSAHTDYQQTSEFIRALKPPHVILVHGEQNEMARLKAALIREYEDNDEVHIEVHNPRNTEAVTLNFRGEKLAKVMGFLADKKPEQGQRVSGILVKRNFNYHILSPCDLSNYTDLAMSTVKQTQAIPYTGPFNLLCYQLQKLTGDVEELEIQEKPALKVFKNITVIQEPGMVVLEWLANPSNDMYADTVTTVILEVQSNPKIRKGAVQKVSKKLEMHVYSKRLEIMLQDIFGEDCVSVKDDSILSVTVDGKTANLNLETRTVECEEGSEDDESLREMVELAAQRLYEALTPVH
UniProt Q9UN37: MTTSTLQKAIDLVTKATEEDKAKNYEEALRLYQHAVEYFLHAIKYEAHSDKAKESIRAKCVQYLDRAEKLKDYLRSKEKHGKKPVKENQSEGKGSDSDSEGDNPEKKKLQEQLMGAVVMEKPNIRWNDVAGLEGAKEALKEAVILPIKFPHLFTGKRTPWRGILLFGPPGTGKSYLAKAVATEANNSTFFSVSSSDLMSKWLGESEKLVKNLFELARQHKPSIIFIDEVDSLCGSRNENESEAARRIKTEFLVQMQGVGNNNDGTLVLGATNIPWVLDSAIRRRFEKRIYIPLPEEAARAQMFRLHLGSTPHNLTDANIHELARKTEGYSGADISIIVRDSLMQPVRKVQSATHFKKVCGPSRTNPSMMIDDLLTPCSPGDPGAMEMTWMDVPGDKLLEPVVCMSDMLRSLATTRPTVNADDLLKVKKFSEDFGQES
UniProt Q9ULV4, whole entry, looked up: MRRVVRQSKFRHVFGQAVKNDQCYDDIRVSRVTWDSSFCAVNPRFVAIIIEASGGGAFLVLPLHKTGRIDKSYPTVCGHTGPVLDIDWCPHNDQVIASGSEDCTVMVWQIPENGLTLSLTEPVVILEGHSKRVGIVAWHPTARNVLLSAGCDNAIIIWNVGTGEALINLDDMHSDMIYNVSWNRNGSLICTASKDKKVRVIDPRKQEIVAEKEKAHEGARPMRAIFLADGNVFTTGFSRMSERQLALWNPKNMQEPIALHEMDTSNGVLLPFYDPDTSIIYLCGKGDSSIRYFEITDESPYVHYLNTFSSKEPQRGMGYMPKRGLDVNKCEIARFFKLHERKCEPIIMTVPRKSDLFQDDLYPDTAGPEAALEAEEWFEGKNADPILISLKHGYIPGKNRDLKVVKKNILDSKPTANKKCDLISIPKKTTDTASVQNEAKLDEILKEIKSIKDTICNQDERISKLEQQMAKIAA
UniProt Q9UID3: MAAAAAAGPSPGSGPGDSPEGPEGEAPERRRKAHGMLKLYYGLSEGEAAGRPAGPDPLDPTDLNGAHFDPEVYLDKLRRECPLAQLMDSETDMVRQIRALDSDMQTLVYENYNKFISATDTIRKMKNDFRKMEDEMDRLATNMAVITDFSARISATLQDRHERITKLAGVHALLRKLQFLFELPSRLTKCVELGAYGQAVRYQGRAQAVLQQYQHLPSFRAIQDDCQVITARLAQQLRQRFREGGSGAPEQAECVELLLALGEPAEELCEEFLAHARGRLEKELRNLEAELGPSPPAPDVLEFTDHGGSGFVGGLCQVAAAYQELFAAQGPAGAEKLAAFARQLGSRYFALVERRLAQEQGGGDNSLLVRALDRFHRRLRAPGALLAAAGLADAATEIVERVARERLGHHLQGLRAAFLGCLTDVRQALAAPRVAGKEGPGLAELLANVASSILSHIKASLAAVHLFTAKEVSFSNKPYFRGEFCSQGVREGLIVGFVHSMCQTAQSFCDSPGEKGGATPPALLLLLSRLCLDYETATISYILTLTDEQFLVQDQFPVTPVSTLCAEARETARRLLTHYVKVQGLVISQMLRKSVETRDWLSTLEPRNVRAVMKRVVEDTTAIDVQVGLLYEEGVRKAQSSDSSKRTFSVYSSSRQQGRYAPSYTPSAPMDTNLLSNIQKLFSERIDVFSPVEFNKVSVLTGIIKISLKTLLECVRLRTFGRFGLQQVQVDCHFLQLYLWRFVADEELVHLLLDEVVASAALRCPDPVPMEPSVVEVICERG
UniProt Q9ULX3: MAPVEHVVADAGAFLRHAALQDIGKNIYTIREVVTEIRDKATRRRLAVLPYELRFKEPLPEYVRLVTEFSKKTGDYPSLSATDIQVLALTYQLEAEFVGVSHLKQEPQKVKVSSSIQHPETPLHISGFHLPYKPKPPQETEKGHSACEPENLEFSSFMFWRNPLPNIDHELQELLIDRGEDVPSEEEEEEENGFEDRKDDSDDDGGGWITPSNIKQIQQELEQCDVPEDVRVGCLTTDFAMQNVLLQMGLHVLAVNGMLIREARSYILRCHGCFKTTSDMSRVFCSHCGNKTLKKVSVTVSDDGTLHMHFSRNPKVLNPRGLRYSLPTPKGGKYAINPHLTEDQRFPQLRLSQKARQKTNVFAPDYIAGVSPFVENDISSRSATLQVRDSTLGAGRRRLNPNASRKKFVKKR
UniProt Q9ULL5: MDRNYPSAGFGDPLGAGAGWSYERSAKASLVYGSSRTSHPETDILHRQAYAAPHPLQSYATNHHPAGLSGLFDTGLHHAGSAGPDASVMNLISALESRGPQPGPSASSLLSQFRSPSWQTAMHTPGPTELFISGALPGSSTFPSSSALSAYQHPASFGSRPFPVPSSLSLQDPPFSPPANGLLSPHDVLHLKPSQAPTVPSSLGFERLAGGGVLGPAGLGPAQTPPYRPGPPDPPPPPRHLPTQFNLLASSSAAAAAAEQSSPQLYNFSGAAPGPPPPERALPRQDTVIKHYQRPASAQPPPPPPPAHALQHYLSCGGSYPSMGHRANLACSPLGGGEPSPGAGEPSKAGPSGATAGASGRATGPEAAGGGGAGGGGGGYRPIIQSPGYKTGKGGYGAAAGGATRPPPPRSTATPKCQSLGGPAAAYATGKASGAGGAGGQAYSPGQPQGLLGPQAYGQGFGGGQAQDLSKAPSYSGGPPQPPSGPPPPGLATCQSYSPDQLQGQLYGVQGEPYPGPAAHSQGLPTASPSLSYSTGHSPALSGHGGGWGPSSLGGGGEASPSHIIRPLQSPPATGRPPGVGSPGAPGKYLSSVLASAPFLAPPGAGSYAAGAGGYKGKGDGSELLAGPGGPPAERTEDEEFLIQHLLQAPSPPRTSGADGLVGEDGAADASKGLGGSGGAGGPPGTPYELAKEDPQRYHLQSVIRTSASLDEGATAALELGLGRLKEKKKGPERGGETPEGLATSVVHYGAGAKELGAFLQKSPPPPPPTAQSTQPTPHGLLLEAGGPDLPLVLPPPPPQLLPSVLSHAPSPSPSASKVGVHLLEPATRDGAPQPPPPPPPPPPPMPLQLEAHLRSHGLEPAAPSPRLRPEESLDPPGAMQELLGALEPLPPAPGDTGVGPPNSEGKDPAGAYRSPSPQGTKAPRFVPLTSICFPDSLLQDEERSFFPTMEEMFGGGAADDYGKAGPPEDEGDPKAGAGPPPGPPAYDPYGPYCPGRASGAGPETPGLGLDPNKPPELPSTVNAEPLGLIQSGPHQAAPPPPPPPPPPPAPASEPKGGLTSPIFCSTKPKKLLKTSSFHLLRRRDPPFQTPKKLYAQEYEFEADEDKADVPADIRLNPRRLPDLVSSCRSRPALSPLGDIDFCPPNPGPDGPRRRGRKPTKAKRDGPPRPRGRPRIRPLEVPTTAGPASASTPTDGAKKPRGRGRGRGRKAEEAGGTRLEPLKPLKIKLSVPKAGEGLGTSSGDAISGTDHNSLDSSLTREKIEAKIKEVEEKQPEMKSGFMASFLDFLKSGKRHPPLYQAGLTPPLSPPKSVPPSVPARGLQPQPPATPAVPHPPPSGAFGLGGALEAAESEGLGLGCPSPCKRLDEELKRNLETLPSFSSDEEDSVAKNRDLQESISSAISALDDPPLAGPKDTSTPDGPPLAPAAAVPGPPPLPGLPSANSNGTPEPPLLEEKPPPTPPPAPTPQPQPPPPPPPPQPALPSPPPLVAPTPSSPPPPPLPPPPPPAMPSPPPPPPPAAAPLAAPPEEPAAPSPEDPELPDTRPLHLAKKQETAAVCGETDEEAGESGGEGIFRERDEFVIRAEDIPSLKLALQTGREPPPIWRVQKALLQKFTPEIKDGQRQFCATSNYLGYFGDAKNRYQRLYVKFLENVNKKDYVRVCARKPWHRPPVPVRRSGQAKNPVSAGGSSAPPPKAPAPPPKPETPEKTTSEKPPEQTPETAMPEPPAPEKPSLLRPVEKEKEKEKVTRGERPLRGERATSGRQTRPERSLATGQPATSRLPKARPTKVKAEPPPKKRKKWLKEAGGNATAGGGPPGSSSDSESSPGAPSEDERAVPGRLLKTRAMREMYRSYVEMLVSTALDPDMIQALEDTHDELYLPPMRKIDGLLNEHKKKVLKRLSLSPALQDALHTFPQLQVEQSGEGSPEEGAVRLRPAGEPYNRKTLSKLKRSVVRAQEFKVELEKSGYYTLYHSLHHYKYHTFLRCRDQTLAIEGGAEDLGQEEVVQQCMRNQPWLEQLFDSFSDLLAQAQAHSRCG

Compound: COC(=O)C#Cc1ccccc1 [methyl 3-phenylpropiolate]
Experiment: log2 ratio of iodoacetamide-alkyne labeling of the cysteine site, DMSO over compound (competition); higher = stronger covalent engagement of the cysteine by the compound, active = 1 or more
Details: 500 µM; treatment time 1 h; system: HEK293T cell lysate
Summary of the method: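 After 1 h at ambient temperature with vehicle or electrophile (500 µM), HEK293T lysate (2 mg/mL) was labelled for 1 h with iodoacetamide alkyne and clicked to sCIP-TMT reagents. Pooled samples were trypsin-digested overnight at 37 °C, streptavidin-enriched, acid-eluted and analysed by Orbitrap Eclipse LC-MS/MS with FAIMS, then quantified in FragPipe over three replicates with duplicate channels. A cysteine's log2 competition ratio is its mean control-channel over mean compound-channel reporter intensity. Cysteines quantified in only one replicate were not included.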

log2 ratio of iodoacetamide-alkyne labeling, inactive:
STRAP C305 (UniProt Q9Y3F4) 0.0837
UniProt Q9Y2L5_C265 0.104
LEMD3 C346 (UniProt Q9Y2U8) 0.462
EIF3L C417 (UniProt Q9Y262) 0.6
NOP58 C439 (UniProt Q9Y2X3) 0.569
SLC25A13 C503 (UniProt Q9UJS0) 0.184
CHORDC1 C59 (UniProt Q9UHD1) -0.0978
EXOC6B C32 (UniProt Q9Y2D4) 0.526
UniProt Q9Y3B4_C83 0.2
TPX2 C364 (UniProt Q9ULW0) 0.768
TPX2 C301 (UniProt Q9ULW0) 0.858
PSMD13 C357 (UniProt Q9UNM6) 0.191
SNX6 C264 (UniProt Q9UNH7) -0.136
AKAP8L C128 (UniProt Q9ULX6) 0.249
TDRKH C419 (UniProt Q9Y2W6) 0.162
STX8 C14 (UniProt Q9UNK0) -0.148
CPSF3 C527 (UniProt Q9UKF6) 0.315
NOC2L C585 (UniProt Q9Y3T9) 0.265
NUDC C188 (UniProt Q9Y266) 0.133
CPSF3 C498 (UniProt Q9UKF6) 0.546
MSRB2 C105 (UniProt Q9Y3D2) 0.956
UniProt Q9UIF8_C1223 0.408
PRPF19 C5 (UniProt Q9UMS4) 0.304
VPS4A C403 (UniProt Q9UN37) 0.205
CORO1C C456 (UniProt Q9ULV4) 0.0121
UniProt Q9Y3I0_C54 0.017
COPS3 C383 (UniProt Q9UNS2) 0.264
VPS51 C269 (UniProt Q9UID3) 0.563
NOB1 C147 (UniProt Q9ULX3) 0.252
PRR12 C322 (UniProt Q9ULL5) 0.259
BAG5 C157 (UniProt Q9UL15) 0.444
TRIM33 C153 (UniProt Q9UPN9) 0.274
RUVBL1 C141 (UniProt Q9Y265) 0.0254
TDRKH C109 (UniProt Q9Y2W6) 0.355
UniProt Q9UKA8_C239 -0.0281
HECTD1 C254 (UniProt Q9ULT8) 0.374
PRPF19 C16 (UniProt Q9UMS4) 0.285

A portion from the list above, as a working copy:
log2 ratio of iodoacetamide-alkyne labeling, inactive:
UniProt Q9Y3I0_C54 0.017
COPS3 C383 (UniProt Q9UNS2) 0.264
